Data published in patent US20250275535A1, “OLIVE TREE BIOMASS EXTRACT” (Veos Pharmaceuticals, S.L., priority 2024, published 2025).
For at least one compound, name, drawing or mass did not settle the structure.

Assays:
Format in all cases: in vivo
[1] = test system: Corn seeds (field hybrid 7571); assay: Corn seed germination; conditions: 12 wt. % hydroxytyrosol solution, room temperature, 14 days
Method: Corn seeds (field hybrid 7571) were incubated at room temperature in a solution including 12 wt. % hydroxytyrosol for 14 days. As a control, corn seeds (field hybrid 7571) were incubated at room temperature in water for 14 days.

Sorghum seeds (RT X 437) = assay: Sorghum seed germination; conditions: 12 wt. % hydroxytyrosol solution, room temperature, 14 days
Method: Sorghum seeds (RT X 437) were incubated at room temperature in a solution including 12 wt. % hydroxytyrosol for 14 days. As a control, sorghum seeds (RT X 437) were incubated at room temperature in water for 14 days.

[2] = test system: Rice seeds (Japanese cultivar, Taipei 309); assay: Rice seed germination; conditions: 12 wt. % hydroxytyrosol solution, 37° C., 14 days
Method: Rice seeds (Japanese cultivar, Taipei 309) were incubated at 37° C. in a solution including 12 wt. % hydroxytyrosol for 14 days. As a control, rice seeds (Japanese cultivar, Taipei 309) were incubated at 37° C. in water for 14 days.

protein levels in leaves = assay: Protein production, western blot of protein levels in leaves; conditions: 12 wt. % hydroxytyrosol, FIG. 5
protein expression = assay: Protein expression at varied hydroxytyrosol concentration; conditions: 24% hydroxytyrosol, compared with 12%

SMILES: OCCc1ccc(O)c(O)c1 [hydroxytyrosol]
- number of germ tubes emerged from corn seeds, compared to water [1]: a greater number of germ tubes emerged
- number of germ tubes emerged from sorghum seeds, compared to water (Sorghum seeds (RT X 437)): a greater number of germ tubes emerged
- number of germ tubes emerged from rice seeds, compared to water [2]: a greater number of germ tubes emerged
- increase of protein levels in leaves, compared to leaves treated with water (protein levels in leaves): five-fold
- protein expression (desensitization effect) (protein expression): protein expression decreased below levels seen at 12%
